The target in the assay is FLAG-Mdm2 (UniProt Q00987). The experiment in a line: co-IP; HEK-293 cells transfected with D2R, GRK2 and FLAG-Mdm2; vehicle or 10 μM dopamine for 2 min; nuclear and cytoplasmic fractions each immunoprecipitated with FLAG beads; blot for GRK2.

The chains behind the UniProt entries cited, without tags or fusion partners.
UniProt Q00987: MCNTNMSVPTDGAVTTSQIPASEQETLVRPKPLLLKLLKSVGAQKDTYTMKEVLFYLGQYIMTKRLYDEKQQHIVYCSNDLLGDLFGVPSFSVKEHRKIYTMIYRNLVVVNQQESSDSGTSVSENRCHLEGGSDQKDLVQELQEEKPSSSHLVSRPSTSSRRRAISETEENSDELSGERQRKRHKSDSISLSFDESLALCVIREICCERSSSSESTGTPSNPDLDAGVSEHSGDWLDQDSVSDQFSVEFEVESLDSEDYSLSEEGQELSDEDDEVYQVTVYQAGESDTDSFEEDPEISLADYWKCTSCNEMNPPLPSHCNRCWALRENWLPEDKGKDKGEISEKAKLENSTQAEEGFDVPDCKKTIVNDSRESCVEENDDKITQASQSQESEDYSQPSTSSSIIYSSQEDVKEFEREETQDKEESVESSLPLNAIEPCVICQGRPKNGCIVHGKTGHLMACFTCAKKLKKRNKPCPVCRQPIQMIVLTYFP
UniProt P25098: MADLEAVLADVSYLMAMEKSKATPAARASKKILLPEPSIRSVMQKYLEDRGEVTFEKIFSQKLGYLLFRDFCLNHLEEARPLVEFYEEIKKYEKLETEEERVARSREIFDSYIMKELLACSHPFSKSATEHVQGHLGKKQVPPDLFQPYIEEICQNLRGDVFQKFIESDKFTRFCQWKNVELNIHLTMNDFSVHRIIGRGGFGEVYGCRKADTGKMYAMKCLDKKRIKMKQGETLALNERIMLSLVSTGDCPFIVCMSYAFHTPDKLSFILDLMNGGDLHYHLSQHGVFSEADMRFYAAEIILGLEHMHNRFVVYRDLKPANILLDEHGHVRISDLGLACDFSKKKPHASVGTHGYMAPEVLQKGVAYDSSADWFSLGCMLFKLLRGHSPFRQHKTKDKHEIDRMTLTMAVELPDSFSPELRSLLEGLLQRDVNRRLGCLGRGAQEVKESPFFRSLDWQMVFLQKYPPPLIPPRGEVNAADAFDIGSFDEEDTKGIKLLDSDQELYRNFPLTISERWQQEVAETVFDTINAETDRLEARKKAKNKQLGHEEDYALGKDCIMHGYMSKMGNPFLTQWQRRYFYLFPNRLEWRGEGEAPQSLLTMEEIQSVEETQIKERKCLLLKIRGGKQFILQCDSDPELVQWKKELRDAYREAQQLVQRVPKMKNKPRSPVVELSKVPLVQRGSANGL

No constants are given. Whether binding was seen depends on the method and setting. Binding seen in cells or lysates may run through a third protein. Some results given as binding are weak or reduced against the parent protein; the word gives no strength.

“GRK2 (from UniProt P25098 1-689) (enzyme)”: the binding entry is listed as “binds”.

The record behind these values is publication PMC11395016.
